Data source: PubChem BioAssay AID1259308 (NCATS, 2017)
This is an unselected part of about 59,000 reagents. Over the whole deposit, about 1,510 (2.6%) are marked active. 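Calls use total luciferase alone and ignore viability, so some active siRNAs may act by altering cell number.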 The numbers tell different reagents against one gene apart. Not all columns of the deposit are shown.

Test: 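Candidate targets for better recombinant protein yield in mammalian cells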 (primary screen)
Cell system: human HEK293 embryonic kidney cells stably expressing firefly luciferase (HEK-CMV-Luc2-Hygro)
Reagents: single siRNA against human genes, 0.8 pmol siRNA per well
Time to read-out: 72 h
Read-out: 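Luciferase light (ONE-Glo) measured on one replicate plate set and viability (CellTiter-Glo) on the other, scaled to a negative control siRNA, with robust z-scores and luciferase per cell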
Direction: total luciferase, z-score and total luciferase, % of control: higher = more reporter protein produced
Rule for the call: 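Active when the median/MAD z-score for overall luciferase is greater than 3; a gene was taken forward for validation with new siRNAs if at least two of its three siRNAs passed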
Calls: active = raised luciferase; inactive = no rise

no.	target gene	reagent	total luciferase, z-score	total luciferase, % of control	outcome
1	URAD	1	-0.159	78.7	inactive
2	URAD	2	0.302	87.9	inactive
3	URAD	3	0.5	91.8	inactive
4	ZFPM1 (zinc finger protein, FOG family member 1)	1	2.58	133	inactive
5	ZFPM1 (zinc finger protein, FOG family member 1)	2	1.28	107	inactive
6	ZFPM1 (zinc finger protein, FOG family member 1)	3	-0.583	70.3	inactive
7	CALML3 (calmodulin like 3)	1	-0.738	67.2	inactive
8	CALML3 (calmodulin like 3)	2	0.91	100	inactive
9	CALML3 (calmodulin like 3)	3	-0.103	79.8	inactive
10	ATP5PF (ATP synthase peripheral stalk subunit F6)	1	1.26	107	inactive
11	ATP5PF (ATP synthase peripheral stalk subunit F6)	2	0.172	85.3	inactive
12	ATP5PF (ATP synthase peripheral stalk subunit F6)	3	2.39	129	inactive
13	ADAMTSL5 (ADAMTS like 5)	1	-0.453	72.9	inactive
14	ADAMTSL5 (ADAMTS like 5)	2	0.000808	81.9	inactive
15	ADAMTSL5 (ADAMTS like 5)	3	-0.481	72.3	inactive
16	CALM1 (calmodulin 1)	1	2.52	132	inactive
17	CALM1 (calmodulin 1)	2	-1.31	55.8	inactive
18	CALM1 (calmodulin 1)	3	-0.578	70.4	inactive
19	KRTAP4-2 (keratin associated protein 4-2)	1	-0.344	75.1	inactive
20	KRTAP4-2 (keratin associated protein 4-2)	2	-1.32	55.6	inactive
21	KRTAP4-2 (keratin associated protein 4-2)	3	5.72	196	active
22	SLC35B1	1	1.32	108	inactive
23	SLC35B1	2	-0.33	75.3	inactive
24	SLC35B1	3	1.63	114	inactive
25	ZNF202 (zinc finger protein 202)	1	-0.773	66.5	inactive
26	ZNF202 (zinc finger protein 202)	2	0.39	89.6	inactive
27	ZNF202 (zinc finger protein 202)	3	-1.35	55	inactive

In a second layout: entries from further up
| target gene | reagent | total luciferase, z-score | total luciferase, % of control | outcome |
| --- | --- | --- | --- | --- |
| CALM1 (calmodulin 1) | 1 | 2.52 | 132 | inactive |
| CALM1 (calmodulin 1) | 2 | -1.31 | 55.8 | inactive |
| CALM1 (calmodulin 1) | 3 | -0.578 | 70.4 | inactive |
| KRTAP4-2 (keratin associated protein 4-2) | 1 | -0.344 | 75.1 | inactive |
| KRTAP4-2 (keratin associated protein 4-2) | 2 | -1.32 | 55.6 | inactive |

Continued:
no.	target gene	reagent	total luciferase, z-score	total luciferase, % of control	outcome
28	P2RX1 (purinergic receptor P2X 1)	1	0.18	85.5	inactive
29	P2RX1 (purinergic receptor P2X 1)	2	1.01	102	inactive
30	P2RX1 (purinergic receptor P2X 1)	3	-0.22	77.5	inactive
31	MPC1L	1	-1.87	44.6	inactive
32	MPC1L	2	-0.396	74	inactive
33	MPC1L	3	-0.682	68.3	inactive
34	PTER (phosphotriesterase related)	1	-0.984	62.3	inactive
35	PTER (phosphotriesterase related)	2	0.0572	83	inactive
36	PTER (phosphotriesterase related)	3	0.0836	83.5	inactive
37	KCTD6 (potassium channel tetramerization domain containing 6)	1	1.02	102	inactive
38	KCTD6 (potassium channel tetramerization domain containing 6)	2	1.86	119	inactive
39	KCTD6 (potassium channel tetramerization domain containing 6)	3	-0.81	65.8	inactive
40	LRCH3	1	0.876	99.3	inactive
41	LRCH3	2	-0.116	79.6	inactive
42	LRCH3	3	-0.602	69.9	inactive
43	ZNF524 (zinc finger protein 524)	1	-1.62	49.7	inactive
44	ZNF524 (zinc finger protein 524)	2	0.813	98	inactive
45	ZNF524 (zinc finger protein 524)	3	1.76	117	inactive
46	AHNAK2 (AHNAK nucleoprotein 2)	1	1.68	115	inactive
47	AHNAK2 (AHNAK nucleoprotein 2)	2	0.926	100	inactive
48	AHNAK2 (AHNAK nucleoprotein 2)	3	-1.94	43.3	inactive
49	CFAP74 (cilia and flagella associated protein 74)	1	-2.1	40.1	inactive
50	CFAP74 (cilia and flagella associated protein 74)	2	0.0997	83.9	inactive
51	CFAP74 (cilia and flagella associated protein 74)	3	-0.635	69.2	inactive
52	CFAP74 (cilia and flagella associated protein 74)	4	0.5	91.8	inactive
53	CFAP74 (cilia and flagella associated protein 74)	5	-0.214	77.6	inactive
54	CFAP74 (cilia and flagella associated protein 74)	6	2.6	134	inactive
55	MRPL17 (mitochondrial ribosomal protein L17)	1	-0.384	74.2	inactive
56	MRPL17 (mitochondrial ribosomal protein L17)	2	-0.45	72.9	inactive
57	MRPL17 (mitochondrial ribosomal protein L17)	3	-0.787	66.2	inactive
